Holding throughout (assay): Western blot of cell lysates (dimer and monomer bands); lysates of HEK293 cells transiently transfected with WT or variant PRLR, blotted with anti-PRLR; concentrations of PRLR dimers compared
The target of experiment [1] is prolactin receptor, wild-type (human) (UniProt P16471).
Experiment [2] has as its target prolactin receptor Arg183His variant (human) (UniProt P16471).
In experiment [3] the target is prolactin receptor Asp187Glu variant (human) (UniProt P16471).
The target in experiment [4] is prolactin receptor Glu145Asp variant (human) (UniProt P16471).
In experiment [5] the target is prolactin receptor Glu155Lys variant (human) (UniProt P16471).

Changes are numbered by the printed parent chain. No constants are given. Whether binding was seen depends on the method and setting. Some entries that bind do so weakly or less than the wild type. For some assays here: Tags and fused reporters may be left off the sequences shown.

B1: prolactin receptor, wild-type (receptor, UniProt P16471 25-622)
chain: QLPPGKPEIFKCRSPNKETFTCWWRPGTDGGLPTNYSLTYHREGETLMHECPDYITGGPNSCHFGKQYTSMWRTYIMMVNATNQMGSSFSDELYVDVTYIVQPDPPLELAVEVKQPEDRKPYLWIKWSPPTLIDLKTGWFTLLYEIRLKPEKAAEWEIHFAGQQTEFKILSLHPGQKYLVQVRCKPDHGYWSAWSPATFIQIPSDFTMNDTTVWISVAVLSAVICLIIVWAVALKGYSMVTCIFPPVPGPKIKGFDAHLLEKGKSEELLSALGCQDFPPTSDYEDLLVEYLEVDDSEDQHLMSVHSKEHPSQGMKPTYLDPDTDSGRGSCDSPSLLSEKCEEPQANPSTFYDPEVIEKPENPETTHTWDPQCISMEGKIPYFHAGGSKCSTWPLPQPSQHNPRSSYHNITDVCELAVGPAGAPATLLNEAGKDALKSSQTIKSREEGKATQQREVESFHSETDQDTPWLLPQEKTPFGSAKPLDYVEIHKVNKDGALSLLPKQRENSGKPKKPGTPENNKEYAKVSGVMDNNILVLVPDPHAKNVACFEESAKEAPPSLEQNQAEKALANFTATSSKCRLQLGGLDYLDPACFTHSFH
For the molecule B1, the binding entry in experiment [1] is on record as “binds”.

B2: prolactin receptor Arg183His variant (receptor, UniProt P16471 25-622)
chain: B1 chain with R183H
Turning to B2, the binding entry in experiment [2] is on record as “binds”.

B3: prolactin receptor Asp187Glu variant (receptor, UniProt P16471 25-622)
chain: B1 chain with D187E
As for B3, in experiment [3], the binding entry is recorded as “binds”.

B4: prolactin receptor Glu145Asp variant (receptor, UniProt P16471 25-622)
chain: B1 chain with E145D
Consider B4, for which the binding entry in experiment [4] was “binds”.

B5: prolactin receptor Glu155Lys variant (receptor, UniProt P16471 25-622)
chain: B1 chain with E155K
As for B5, the binding entry in experiment [5] is recorded as “binds”.

(Values after publication PMC7614258.)
